In article PMC3627958:
These are yes or no findings as the source states them, for the method shown. Binding seen in cells or lysates may run through a third protein. Here binding means that the protein was enriched with, or labelled near, the bait; the list need not be complete. Sequences can lack the tags named with a protein.

By UniProt entry, the sequences of proteins in these tests, tags left out.
UniProt Q12158: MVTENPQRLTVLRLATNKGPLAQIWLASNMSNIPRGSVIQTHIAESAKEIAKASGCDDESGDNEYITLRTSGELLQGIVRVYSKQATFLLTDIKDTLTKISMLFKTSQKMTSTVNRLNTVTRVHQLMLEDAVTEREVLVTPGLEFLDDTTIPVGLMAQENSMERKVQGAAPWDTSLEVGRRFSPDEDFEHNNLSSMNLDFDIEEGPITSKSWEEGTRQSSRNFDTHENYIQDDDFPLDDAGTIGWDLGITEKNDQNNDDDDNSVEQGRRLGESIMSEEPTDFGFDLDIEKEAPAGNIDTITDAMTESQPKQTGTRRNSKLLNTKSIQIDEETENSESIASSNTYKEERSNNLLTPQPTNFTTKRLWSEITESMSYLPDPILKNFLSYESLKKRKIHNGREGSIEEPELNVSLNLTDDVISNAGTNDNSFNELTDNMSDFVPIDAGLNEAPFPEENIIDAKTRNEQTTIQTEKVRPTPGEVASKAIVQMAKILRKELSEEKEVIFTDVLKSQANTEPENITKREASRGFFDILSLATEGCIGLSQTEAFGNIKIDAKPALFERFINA

T1: Scc2-6His-3FLAG (budding yeast) (UniProt Q04002)
T1 sequence: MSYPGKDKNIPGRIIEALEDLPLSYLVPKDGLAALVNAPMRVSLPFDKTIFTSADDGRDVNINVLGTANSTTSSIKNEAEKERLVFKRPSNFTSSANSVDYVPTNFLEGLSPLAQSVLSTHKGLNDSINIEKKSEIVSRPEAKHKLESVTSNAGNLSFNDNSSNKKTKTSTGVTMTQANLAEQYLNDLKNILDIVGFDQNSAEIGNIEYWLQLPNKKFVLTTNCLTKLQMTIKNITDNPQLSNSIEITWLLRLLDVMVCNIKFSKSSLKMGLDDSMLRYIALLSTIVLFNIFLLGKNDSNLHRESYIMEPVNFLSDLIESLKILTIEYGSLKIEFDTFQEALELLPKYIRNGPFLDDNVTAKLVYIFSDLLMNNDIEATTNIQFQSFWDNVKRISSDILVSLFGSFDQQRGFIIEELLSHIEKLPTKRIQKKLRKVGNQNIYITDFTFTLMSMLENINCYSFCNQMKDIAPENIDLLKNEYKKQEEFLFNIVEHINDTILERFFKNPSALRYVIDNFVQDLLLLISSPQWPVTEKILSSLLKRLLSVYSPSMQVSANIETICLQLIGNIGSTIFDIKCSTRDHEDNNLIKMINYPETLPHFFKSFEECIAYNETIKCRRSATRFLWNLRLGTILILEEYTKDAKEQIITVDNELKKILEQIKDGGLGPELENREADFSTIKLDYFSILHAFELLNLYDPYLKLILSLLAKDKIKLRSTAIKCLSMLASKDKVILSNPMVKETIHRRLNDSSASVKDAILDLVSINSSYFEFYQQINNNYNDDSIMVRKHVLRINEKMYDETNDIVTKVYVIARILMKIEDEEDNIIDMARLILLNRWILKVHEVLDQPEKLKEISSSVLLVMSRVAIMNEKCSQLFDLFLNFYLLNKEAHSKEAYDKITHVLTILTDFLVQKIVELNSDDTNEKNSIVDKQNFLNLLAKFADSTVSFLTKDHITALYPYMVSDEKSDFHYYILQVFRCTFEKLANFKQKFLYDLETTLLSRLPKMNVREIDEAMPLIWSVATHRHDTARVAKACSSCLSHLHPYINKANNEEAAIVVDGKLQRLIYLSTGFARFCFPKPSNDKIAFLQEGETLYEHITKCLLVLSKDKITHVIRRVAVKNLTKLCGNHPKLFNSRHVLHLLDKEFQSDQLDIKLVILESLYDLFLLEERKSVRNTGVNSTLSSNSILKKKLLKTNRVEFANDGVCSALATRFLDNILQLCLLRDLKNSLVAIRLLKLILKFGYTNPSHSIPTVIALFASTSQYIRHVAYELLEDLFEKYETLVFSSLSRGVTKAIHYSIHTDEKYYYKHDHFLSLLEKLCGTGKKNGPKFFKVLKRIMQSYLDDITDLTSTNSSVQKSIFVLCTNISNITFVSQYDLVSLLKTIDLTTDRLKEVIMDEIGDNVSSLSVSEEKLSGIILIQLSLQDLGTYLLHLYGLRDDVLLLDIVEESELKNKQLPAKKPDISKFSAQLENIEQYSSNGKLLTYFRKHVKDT


Target: T1, Scc2-6His-3FLAG (budding yeast)
Test: affinity purification with mass spectrometry; Scc2-6His-3FLAG immunoprecipitated from G1-arrested wild-type or pGAL-SCC1-3HA cells in the presence of galactose; copurifying proteins analysed by mass spectrometry

binding	Molecule
binds	Scc1-3HA (from UniProt Q12158 1-566)
binds	Scc4 (protein, UniProt P40090 1-624) MENLGDKLSISQVYHLAQEYRDHAYSIANKIGSEEGLKQYYGLMNMSIQMFQLLKTKCTLSVLEDSKVTFEMVELLIQETYNFDLAELYISSLKERLQTHQSDTDLVEEIMRCEFLLLHDLPLMRDSKFHYKIALRNCNELVQYMVNLQDELYQNWASVFQYVGVMLCIKLKQHRRVKTSFHGLLSQCREKSQWKWFLNLCYVNYLLNERFPIPEDALQELRSTELHTVGPELYAWKLALEMVIQLCKDGNITDHLNEFKNFFDTNKQSLVTNEGKGCVIKIMPRIALKVELPMIFHYKELKNILLLLQSVSYIVNCYDEKGNFSRKFLPKVYSTTQKLIKNIAAGGVSMNELDSRIQTYKSILEFCEFYKVWEQTLLKGAVVTTESPKLGPSPGYVRLLQAMKVQFEGGGAVEEYTRLAQSGGTSSEVKMISLLNCYTVQAARVSRCSGDKQGELVEQCNKVWLQVEKLLQETDLQFNPIWECTVTILWLFSHFEPFSWNPLPCSDKQRAEYVSKLREFYSSNKFVAGEAVADNRFKLKKALLLQILVNYLGGRMLEHDLGEIYAISAKCFDMCRQQGGMRKVQYVIGIWHLMNCTVAMRGKDVALTNAKLEALVKQITSVKQ
